# From PubChem BioAssay AID493014 (National Center for Advancing Translational Sciences (NCATS), 2011)
# The other results are listed elsewhere or left out. Further columns of the screen follow, without active or inactive calls. The list favours compounds with an active or inconclusive main result. Potencies come from curve fits of mixed quality, noted in brackets.
# Assay: qHTS Assay to Find Inhibitors of Chronic Active B-Cell Receptor Signaling
# Details: ABC-DLBCL IkBa-CBG/CBR reporter, luminescence ratio (green luciferase fused to IkBa over red control in TMD8 lymphoma cells), 4 h
# Outline: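 Cell line TMD8 (human ABC DLBCL), stably expressing tet-inducible CBG68-IkBa fusion and CBR; IMDM/0.5% FBS; cpd up to 46 uM; dox induction, 4 h, 37C/5% CO2; dual luminescence; green/red ratio; MG132 control.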
# [1] = measured here: IkBa-CBG green luminescence
# [2] = measured here: CBR red luminescence, cell number
SMILES,AC50 [1],AC50 [2]
CCc1nc2ccc(C(=O)N3CCN(c4ccccc4)CC3)cc2nc1CC,"14.1 µM [rising, partial curve, poor fit]",
C=CCn1c(=NC(=O)c2sc3ccccc3c2Cl)sc2cc(S(N)(=O)=O)ccc21,,"2.31 µM [rising, partial curve, poor fit]"
CCOC(=O)c1[nH]c(C)c(C(=O)Nc2ccccc2F)c1C,,"14.6 µM [rising, partial curve]"
CCCCOc1ccccc1C1C(C(=O)OC)=CN(CC)C=C1C(=O)OC,,"22.4 µM [falling, single point]"
CN1C(=O)C(=O)N(CC(=O)N2CCc3ccccc32)C1=O,,"29.1 µM [rising, single point]"
CCCCNC(=O)c1onc(CSc2ccc(F)c(F)c2)c1C(=O)O,,"2.82 µM [rising, partial curve, poor fit]"
CCOP(=O)(OCC)/C(=N/OC(=O)c1ccc(Cl)cc1Cl)C(N)=O,,"35.5 µM [rising, single point]"
NC(=O)c1nsc(C(=O)N(CC(=O)NC2CCCCC2)c2cccc(F)c2)c1N,,"0.112 µM [falling, full curve, poor fit]"
CCOC(=O)c1cccc(NC(=O)CCc2c(C)nc3ncnn3c2C)c1,,"28.2 µM [falling, partial curve, poor fit]"
COc1ccc(/C=N/n2c(N)nc(-c3ccccc3)c2-c2ccccc2)cc1,,"5.62 µM [falling, partial curve]"
O=C(Nc1ccc(Oc2ccccc2)cc1)C1CC1,,"5.62 µM [rising, partial curve, poor fit]"
Oc1ccc(/C=N/NC(=S)Nc2cccnc2)c(O)c1,,"1.16 µM [falling, full curve]"
CCOc1ccccc1NC(=O)C1CCCN(S(=O)(=O)c2c(C)[nH]c(=O)[nH]c2=O)C1 (stereo unspecified),,"0.103 µM [falling, full curve, poor fit]"
COc1ccc(CCNC(=O)c2cc(C)oc2C)cc1,,"14.1 µM [falling, partial curve, poor fit]"
CC(=O)N1N=C(c2ccc3ccccc3c2)OC1(C)C,,"6.51 µM [rising, full curve, poor fit]"
O=[N+]([O-])c1cccc(-c2noc(COc3ccccc3)n2)c1,,"1.12 µM [rising, full curve]"
Cc1cccnc1NC(=O)c1ccc2c(c1)OCO2,,"23.1 µM [falling, single point]"
O=C(COc1ccc(/C=C2/NC(=O)NC2=O)cc1)Nc1ccc(F)cc1,,"7.94 µM [rising, partial curve]"
O=C(NCCN1CCOCC1)c1ccc2ccccc2n1,,"11.6 µM [rising, partial curve, poor fit]"
N#Cc1c(NC(=O)C2CC(Cl)=CCC2C(=O)O)sc2c1CCCCC2 (stereo unspecified),,"7.08 µM [falling, partial curve, poor fit]"
COc1cc(OC)c2ccc(=O)oc2c1C(CC(=O)N1CCCC1)c1ccc(N(C)C)cc1 (stereo unspecified),,"2.51 µM [rising, full curve, poor fit]"
O=c1cc(-c2ccccc2)n2c(SCc3ccccc3)nnc2[nH]1,,"0.708 µM [falling, full curve, poor fit]"

SMILES,AC50 [1],AC50 [2]
CCC(CC)NC(=O)c1cccc(Br)c1,,"11.2 µM [rising, single point]"
Cc1ccc(NC(=O)CSc2nc3ccccc3c(=O)n2CCCN2CCCCC2)cc1C,,"11.2 µM [falling, partial curve, poor fit]"
Clc1ccc(/C(Cc2nc3ccccc3[nH]2)=N\Nc2ccccc2)cc1,,"15.8 µM [falling, single point]"
COc1cc(Cl)c(C)cc1NC(=O)CSc1nnc(-c2ccco2)n1CC(C)C,,"22.4 µM [falling, single point]"
C=CCn1c(Oc2ccccc2)nc2c1c(=O)n(C)c(=O)n2C,,"12.6 µM [falling, partial curve]"
Cc1cc(C)nc(N/N=C/c2sccc2C)n1,,"12.6 µM [falling, partial curve]"
O=C(COc1ccccc1F)NNC(=O)c1ccc(N2CCCCC2)c([N+](=O)[O-])c1,,"14.6 µM [rising, partial curve, poor fit]"
CCOC(=S)SCC(=O)N1CCc2cc(OC)ccc2C1C1C(=O)CCCC1=O (stereo unspecified),"20.6 µM [falling, partial curve, poor fit]","2.06 µM [falling, full curve, poor fit]"
CCOC(=O)N1CCN(C(=O)c2ccc3c(=O)n(CCC4=CCCCC4)c(=O)[nH]c3c2)CC1,,"10 µM [rising, partial curve, poor fit]"
O=C(NC(=S)Nc1cccc2cc(O)ccc12)c1ccccc1Br,,"0.398 µM [falling, full curve]"
CSc1nc2ccc(NC(=O)c3nn(C(C)C)c(=O)c4ccccc34)cc2s1,,"7.31 µM [rising, partial curve, poor fit]"
COc1ccccc1N(C)S(=O)(=O)c1ccc(C(=O)Nc2nccs2)cc1,,"8.2 µM [falling, partial curve]"
Cc1ccc(-n2cc(C(=O)c3ccccc3O)cn2)cc1,,"7.94 µM [falling, partial curve]"
Cc1ccccc1N1C(=O)C2ON(c3ccccc3)C(c3ccco3)C2C1=O (stereo unspecified),,"11.2 µM [falling, partial curve, poor fit]"
COc1cccc(OC)c1C(=O)NC(=S)Nc1ccc2c(c1)C(=O)N(C)C2=O,,"29.1 µM [rising, single point]"
COc1ccc(Cl)cc1NC(=O)CN(C)C(=O)CCCc1c[nH]c2ccccc12,,"35.5 µM [falling, single point]"
CC(=O)Nc1cc(NC(C)=O)cc(C(=O)OCC(=O)N(c2ccccc2)C2CCS(=O)(=O)C2)c1 (stereo unspecified),,"1.03 µM [falling, full curve, poor fit]"
CNc1nc(N2CCc3ccccc32)ncc1F,,"12.6 µM [rising, partial curve, poor fit]"
C=CCc1ccccc1OCC(=O)NNC(=S)NCc1ccccc1,,"2 µM [rising, full curve, poor fit]"
COc1ccc2c(=O)c(C(=O)NCCc3ccccc3)c[nH]c2c1,,"12.6 µM [falling, partial curve]"
O=C(CNCC1CCCO1)N1CCCc2ccccc21 (stereo unspecified),,"29.1 µM [rising, single point]"
Cc1ccc(-n2nnc(-c3cnc4ccccc4c3)n2)cc1,,"10 µM [falling, partial curve]"

SMILES,AC50 [1],AC50 [2]
Cc1nc2ccccn2c1C(=O)NNC(=S)Nc1ccccc1,,"10 µM [falling, partial curve, poor fit]"
O=C(c1cccc(NS(=O)(=O)c2ccc(Br)cc2)c1)N1CCCCC1,,"1.3 µM [falling, full curve, poor fit]"
CCOc1ccc(S(=O)(=O)NCCC(=O)NCCc2ccc(C(C)C)cc2)cc1,,"23.1 µM [falling, single point]"
CCn1c(C)nc2c(C)[n+](CC(=O)c3ccc(Br)cc3)ccc21,,"0.631 µM [falling, full curve, poor fit]"
COc1ccc(NC(=O)c2cccnc2)cc1,,"1.26 µM [rising, full curve, poor fit]"
COc1ccc(NS(=O)(=O)c2ccc(OC)c(N(C)S(=O)(=O)c3ccc(Cl)cc3)c2)cc1,,"4.47 µM [rising, partial curve, poor fit]"
c1ccc(CSc2ncnc3c2cnn3-c2ccccc2)cc1,,"0.0731 µM [rising, full curve, poor fit]"
COc1ccc(C(=O)N/N=C/c2sc3ccccc3c2O)cc1,"6.51 µM [falling, single point]","16.4 µM [falling, partial curve]"
S=C(N/N=C/c1ccc(Cl)c(Cl)c1)Nc1ccccc1Cl,,"0.316 µM [falling, full curve]"
CCOc1ccc(/C=C2\SC(=S)N(C(C(=O)O)c3ccccc3)C2=O)cc1OC (stereo unspecified),,"35.5 µM [falling, single point]"
Cc1ccc2[nH]c3c(=S)nc[nH]c3c2c1,,"2.31 µM [rising, partial curve, poor fit]"
O=C1CC(c2ccccc2)CC(O)=C1C=Nc1ccc(O)cc1 (stereo unspecified),,"15.8 µM [falling, partial curve, poor fit]"
Cc1cccc(/C=C(\c2nc3ccccc3[nH]2)S(=O)(=O)c2ccccc2)c1,,"2.31 µM [falling, partial curve]"
[O-][n+]1onc2c1CCc1c-2nn(-c2ccccc2Cl)[n+]1[O-],,"17.8 µM [falling, partial curve, poor fit]"
Cc1cccc(C)c1NC(=O)CN(c1ccccn1)S(=O)(=O)c1ccc(F)cc1,,"35.5 µM [rising, single point]"
Cc1cccc(C(=O)Nc2ccc3c(c2)C(=O)NC3=O)c1,,"35.5 µM [falling, single point]"
Cc1cc(Br)ccc1OCc1nc(-c2cccnc2)no1,,"29.1 µM [rising, single point]"
CC(=O)Nc1ccc(S(=O)(=O)NCCNC(=O)c2ccccc2F)cc1,,"20.6 µM [rising, partial curve, poor fit]"
CN(C)CCNC(=O)C(=O)C1C(=O)Nc2ccccc21 (stereo unspecified),,"14.1 µM [falling, single point]"
CC(=O)c1cccc(NC(=O)CSc2nc(C3CC3)nc3ccccc23)c1,,"2.51 µM [falling, partial curve, poor fit]"

# Three entries already listed, arranged by count of non-hydrogen atoms, falling:
SMILES,AC50 [1],AC50 [2]
COc1ccc(NS(=O)(=O)c2ccc(OC)c(N(C)S(=O)(=O)c3ccc(Cl)cc3)c2)cc1,,"4.47 µM [rising, partial curve, poor fit]"
COc1ccc(C(=O)N/N=C/c2sc3ccccc3c2O)cc1,"6.51 µM [falling, single point]","16.4 µM [falling, partial curve]"
[O-][n+]1onc2c1CCc1c-2nn(-c2ccccc2Cl)[n+]1[O-],,"17.8 µM [falling, partial curve, poor fit]"
